## Primary screen of a compound library

Protein sequences, listed by entry. Tags and fused reporters are not part of them.
UniProt E9BF75, entry or part of it: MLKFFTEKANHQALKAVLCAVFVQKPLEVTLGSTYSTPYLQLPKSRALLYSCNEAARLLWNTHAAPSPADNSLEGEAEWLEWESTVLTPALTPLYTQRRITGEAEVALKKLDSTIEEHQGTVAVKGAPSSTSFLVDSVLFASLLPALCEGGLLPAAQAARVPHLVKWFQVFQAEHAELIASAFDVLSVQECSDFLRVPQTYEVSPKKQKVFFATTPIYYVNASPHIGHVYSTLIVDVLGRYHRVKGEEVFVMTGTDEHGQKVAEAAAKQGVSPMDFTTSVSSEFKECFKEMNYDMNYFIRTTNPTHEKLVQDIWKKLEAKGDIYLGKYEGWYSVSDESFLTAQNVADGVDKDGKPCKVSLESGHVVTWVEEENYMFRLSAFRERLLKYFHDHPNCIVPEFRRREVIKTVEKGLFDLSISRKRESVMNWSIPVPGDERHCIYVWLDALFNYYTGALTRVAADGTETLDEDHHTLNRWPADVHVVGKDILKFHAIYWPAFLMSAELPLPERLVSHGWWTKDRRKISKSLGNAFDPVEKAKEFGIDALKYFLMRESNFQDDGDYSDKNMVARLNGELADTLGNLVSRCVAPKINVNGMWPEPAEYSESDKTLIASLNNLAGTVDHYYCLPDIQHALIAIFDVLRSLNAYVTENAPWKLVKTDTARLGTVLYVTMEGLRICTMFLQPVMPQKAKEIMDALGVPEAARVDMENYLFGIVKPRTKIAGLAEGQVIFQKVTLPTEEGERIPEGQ

From ChEMBL document CHEMBL3988442, “University of Dundee, Small-Polar-MMV Screening Library” (2021).

LdMetRS: 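Primary screen of methionyl-tRNA synthetase; the read-out is not stated. Target: Methionyl-tRNA synthetase (putative), Leishmania donovani (UniProt E9BF75). The test concentration is not given. Values are per cent inhibition. Of about 68,000 compounds tested this way, about 24 (0.035%) reached 50% or more in at least one test.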
Mtb heat-shock: 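Assay on Mycobacterium tuberculosis, filed only as a heat shock assay from Cornell; the read-out is not stated. The concentration is filed as 10 mM, unlikely as a test dose, so the dose is not known. The record gives no direction; compounds that gave an IC50 in retests scored well above the rest, so higher reads as stronger inhibition. Of about 69,000 compounds tested this way, about 930 (1.4%) reached 50% or more in at least one test.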

Results are percentages, as filed. The controls that fix the scale are not given in the record; negative values are as filed. This is an unselected part of the compounds tested.

Cc1c(C(=O)NCC2CCS(=O)(=O)C2)cnn1-c1ccccc1 (stereo unspecified) gave LdMetRS: 10.24%; Mtb heat-shock: -9.238%. CCS(=O)(=O)c1ccc(N2CCC(NC(=O)CCC(C)C)CC2)cc1 read LdMetRS: 16.59%; Mtb heat-shock: -4.294%. Cc1sc(CN)nc1-c1ccc(Cl)cc1 gave LdMetRS: -2.241%. For Cc1cccc(COc2ccc(C(C)N)cc2)c1.Cl (stereo unspecified) the result was Mtb heat-shock: 2.748%.

Result for COc1ccccc1[C@@H]1CN(Cc2ccncc2)C[C@H]1C(=O)O was LdMetRS: 5.618%; Mtb heat-shock: 45.83%. Cc1nc(CN2CCCC(N(C)Cc3nnsc3Cl)C2)no1 (stereo unspecified) read LdMetRS: 15.28%; Mtb heat-shock: 1.516%. O=C(O)C(F)(F)F.[H][C@@]12CCN(C(=O)Cc3ccccc3)CC[C@]1(C(=O)N(C)C)CCN2CC read Mtb heat-shock: -7.529%. Cc1cc(NC(=O)NCCC(=O)N2CCCc3ccccc32)no1 read LdMetRS: 4.19%; Mtb heat-shock: -40.26%.

For NC(=O)N1CCC2(CCN(Cc3cccc(F)c3)CC2)CC1 the result was LdMetRS: 6.299%. Result for CC(C)N1CCC(C(=O)N[C@H](C(=O)O)c2cccc(F)c2F)CC1 was LdMetRS: 10.99%; Mtb heat-shock: 17.62%. For O=C(O)C(F)(F)F.O=C(O)C(F)(F)F.O=C(O)C(F)(F)F.[H][C@@]12CN(Cc3cccnc3)CCO[C@]1([H])CN(Cc1ccccc1OC)C2 the result was Mtb heat-shock: -38.86%. For Cn1c(=O)[nH]c(=O)n2c(CC(=O)Nc3ccccc3)cnc12 the result was LdMetRS: 2.286%; Mtb heat-shock: -0.2037%.

Result for COc1cccc(N2CCN(C(=O)[C@H](O)C3CCCCC3)CC2=O)c1 was LdMetRS: 14.86%; Mtb heat-shock: 7.605%. Result for O=C(O)C(F)(F)F.O=C(O)C(F)(F)F.[H][C@@]12CCN(Cc3cccc(C#N)c3)[C@@]1([H])CC(=O)N2CCN1CCCC1 was Mtb heat-shock: -3.152%. COCCN1CCCC(Cc2ccc(N3CCOCC3)nn2)C1 (stereo unspecified) read LdMetRS: 18.65%; Mtb heat-shock: -18.28%. For CS(=O)(=O)CCNC(=O)c1ccc(-c2ccco2)[nH]c1=O the result was LdMetRS: 21.17%; Mtb heat-shock: -3.784%.

For C[C@@H]1C[C@@H]2CCN(C(=O)c3cnccn3)C[C@H]2O1 the result was LdMetRS: 11.43%. For COCCSCC(=O)NCc1ccc(N(C)C)cc1 the result was LdMetRS: -1.083%; Mtb heat-shock: -8.931%. Cc1ccc(CN2CCC3(CC2)NC(=O)CC3c2ccncc2)cc1C (stereo unspecified) read LdMetRS: -0.6536%. CC(CO)CN(Cc1ccccc1)Cc1cnc2ccccc2n1 (stereo unspecified) gave LdMetRS: 8.043%; Mtb heat-shock: -31.31%.

With N#CCSCCCN1CCN(C(=O)c2cccc(Cl)c2)CC1 the screen gave LdMetRS: 16.56%; Mtb heat-shock: -12.31%. For O=C(O)C(F)(F)F.[H][C@@]12CCN(Cc3cc(C)on3)C[C@]1([H])OCCN(c1ccccc1)C2=O the result was Mtb heat-shock: -6.692%. CCc1nnc(CN(CC)C(=O)C2CC(=O)N(C(C)(C)C)C2)o1 (stereo unspecified) read LdMetRS: -7.673%; Mtb heat-shock: 7.156%. CN(Cc1ccc(F)cc1)C(=O)NCc1nnc2n1CCC2 read LdMetRS: 6.667%; Mtb heat-shock: 1.694%.

Result for Cc1cc(-c2cnn(CCNC(=O)Cc3ccccn3)c2C2CC2)on1 was LdMetRS: 15.82%; Mtb heat-shock: -3.075%. For CCN1CCN(C[C@H]2CC[C@@H](Cc3ccc4c(c3)OCO4)O2)CC1 the result was LdMetRS: 12.41%; Mtb heat-shock: 6.587%. With CCc1ncc(-c2cn(CCSc3ncn[nH]3)nn2)cn1 the screen gave LdMetRS: 9.6%; Mtb heat-shock: -10.3%. Fc1ccc(CN2CCOC[C@H](Oc3cccnc3)C2)cc1 read LdMetRS: 9.831%; Mtb heat-shock: -34.69%.

Result for O=S(=O)(Cc1ccccc1)NCC1CCCN(Cc2cccs2)C1 (stereo unspecified) was LdMetRS: 5.944%; Mtb heat-shock: -5.598%. Result for Cc1ccc(CCNc2ncc(C)c(-c3ccnn3C)n2)s1 was LdMetRS: 10.65%; Mtb heat-shock: 10.76%. For O=C(O)C(F)(F)F.c1cnc(N2CCCC3(CCN(CC4CCOC4)CC3)C2)nc1 (stereo unspecified) the result was Mtb heat-shock: -17.62%. With Cc1nc(CN2CC3(CCN(c4ncc(F)cn4)C3)CC2=O)cs1.O=C(O)C(F)(F)F (stereo unspecified) the screen gave Mtb heat-shock: -8.732%.

O=C(O)C(F)(F)F.c1ccc(CN2CCCn3nnc(Cn4cccc4)c3C2)nc1 gave Mtb heat-shock: -13.67%. CCc1cc(=O)[nH]c2nnc(SCC(=O)N3CCC(C)CC3)n12 gave LdMetRS: 8.393%; Mtb heat-shock: -14.56%. Result for CN(C)c1ncccc1CNS(=O)(=O)c1cc(F)ccc1F was LdMetRS: 9.091%; Mtb heat-shock: -14.71%. Cc1nn(C)cc1-c1ccnc(N2CCN(c3cnccn3)CC2)n1 gave LdMetRS: 3.352%; Mtb heat-shock: -12.87%.

With O=C1CC(C(=O)O)C2(CCN(C(=O)Nc3ccccc3Cl)CC2)N1 (stereo unspecified) the screen gave LdMetRS: 14.17%; Mtb heat-shock: 8.398%. With COCC1c2nnn(C)c2CCN1C(=O)COc1ccccc1OC (stereo unspecified) the screen gave LdMetRS: 0%; Mtb heat-shock: 34.27%. With [H][C@]12CCC(=O)N(c3cccnc3)[C@@]1([H])CCN2C(=O)c1cnccn1 the screen gave Mtb heat-shock: -0.2283%. Result for CNC(=O)[C@H]1C[C@@H]2CN(C(=O)c3cccnc3)C[C@@H]2N1S(C)(=O)=O was LdMetRS: 17.26%.

CCN(C)S(=O)(=O)N(Cc1cscn1)c1ccccc1 read LdMetRS: 5.128%; Mtb heat-shock: -11.45%. CCOC(=O)[C@H]1CNC[C@@H]1C(F)(F)F gave LdMetRS: 15.63%; Mtb heat-shock: 20.35%.

5 of the entries, repeated:

Result for CCS(=O)(=O)c1ccc(N2CCC(NC(=O)CCC(C)C)CC2)cc1 was LdMetRS: 16.59%; Mtb heat-shock: -4.294%.
Result for COCC1c2nnn(C)c2CCN1C(=O)COc1ccccc1OC (stereo unspecified) was LdMetRS: 0%; Mtb heat-shock: 34.27%.
Result for Cc1c(C(=O)NCC2CCS(=O)(=O)C2)cnn1-c1ccccc1 (stereo unspecified) was LdMetRS: 10.24%; Mtb heat-shock: -9.238%.
Result for COc1cccc(N2CCN(C(=O)[C@H](O)C3CCCCC3)CC2=O)c1 was LdMetRS: 14.86%; Mtb heat-shock: 7.605%.
Result for CCc1nnc(CN(CC)C(=O)C2CC(=O)N(C(C)(C)C)C2)o1 (stereo unspecified) was LdMetRS: -7.673%; Mtb heat-shock: 7.156%.